According to the supplement of paper PMC6411743:
± gives the standard deviation of the averaged measurements. The list shows a part of the results.

The chains behind the UniProt entries cited, without tags or fusion partners. Where a name states a change or a piece, a line headed by the entry shows the natural chain unless it says otherwise.
UniProt Q96AG3: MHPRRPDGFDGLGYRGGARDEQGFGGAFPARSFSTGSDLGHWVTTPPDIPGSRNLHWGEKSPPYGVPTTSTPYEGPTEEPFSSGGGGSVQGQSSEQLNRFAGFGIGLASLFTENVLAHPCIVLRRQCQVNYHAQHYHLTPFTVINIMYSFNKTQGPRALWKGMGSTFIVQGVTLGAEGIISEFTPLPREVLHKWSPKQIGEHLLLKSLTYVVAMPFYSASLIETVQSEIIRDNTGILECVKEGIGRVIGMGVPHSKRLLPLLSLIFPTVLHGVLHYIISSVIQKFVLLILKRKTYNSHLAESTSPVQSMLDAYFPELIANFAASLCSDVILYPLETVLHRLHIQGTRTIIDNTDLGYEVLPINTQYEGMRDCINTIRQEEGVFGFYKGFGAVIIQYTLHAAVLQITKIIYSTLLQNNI
UniProt Q969G6: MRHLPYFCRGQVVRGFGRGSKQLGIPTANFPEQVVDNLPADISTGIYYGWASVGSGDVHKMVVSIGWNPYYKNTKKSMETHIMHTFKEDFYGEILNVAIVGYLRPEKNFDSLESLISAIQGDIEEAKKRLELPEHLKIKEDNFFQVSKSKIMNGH
UniProt Q8WUY1: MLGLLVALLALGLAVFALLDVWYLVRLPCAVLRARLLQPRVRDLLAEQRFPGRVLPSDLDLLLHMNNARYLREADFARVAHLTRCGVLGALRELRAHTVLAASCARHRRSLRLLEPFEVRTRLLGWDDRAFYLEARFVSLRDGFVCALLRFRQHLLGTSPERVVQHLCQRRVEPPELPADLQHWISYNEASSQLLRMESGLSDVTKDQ
UniProt Q8WW01: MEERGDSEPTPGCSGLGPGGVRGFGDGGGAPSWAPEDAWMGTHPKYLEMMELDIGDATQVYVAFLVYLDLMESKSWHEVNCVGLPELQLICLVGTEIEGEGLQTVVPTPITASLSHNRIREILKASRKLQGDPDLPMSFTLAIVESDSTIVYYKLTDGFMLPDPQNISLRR
UniProt Q96FJ0: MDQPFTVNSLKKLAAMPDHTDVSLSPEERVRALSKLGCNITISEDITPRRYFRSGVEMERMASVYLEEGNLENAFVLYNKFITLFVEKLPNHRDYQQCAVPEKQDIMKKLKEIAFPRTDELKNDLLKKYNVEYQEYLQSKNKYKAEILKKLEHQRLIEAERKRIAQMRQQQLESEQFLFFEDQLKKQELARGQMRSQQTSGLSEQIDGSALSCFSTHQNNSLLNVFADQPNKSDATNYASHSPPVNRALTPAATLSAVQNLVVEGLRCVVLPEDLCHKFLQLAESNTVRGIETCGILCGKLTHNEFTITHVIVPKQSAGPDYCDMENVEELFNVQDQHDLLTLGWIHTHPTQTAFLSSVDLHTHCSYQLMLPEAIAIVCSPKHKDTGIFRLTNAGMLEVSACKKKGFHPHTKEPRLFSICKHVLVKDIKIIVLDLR
UniProt Q8WXX5: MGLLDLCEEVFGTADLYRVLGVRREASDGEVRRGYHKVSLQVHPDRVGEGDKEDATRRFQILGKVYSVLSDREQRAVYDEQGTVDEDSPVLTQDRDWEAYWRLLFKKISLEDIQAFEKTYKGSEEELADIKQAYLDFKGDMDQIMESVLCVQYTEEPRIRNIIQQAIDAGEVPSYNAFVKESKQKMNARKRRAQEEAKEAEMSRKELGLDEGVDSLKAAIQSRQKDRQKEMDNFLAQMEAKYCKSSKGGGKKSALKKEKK
UniProt Q96DU7: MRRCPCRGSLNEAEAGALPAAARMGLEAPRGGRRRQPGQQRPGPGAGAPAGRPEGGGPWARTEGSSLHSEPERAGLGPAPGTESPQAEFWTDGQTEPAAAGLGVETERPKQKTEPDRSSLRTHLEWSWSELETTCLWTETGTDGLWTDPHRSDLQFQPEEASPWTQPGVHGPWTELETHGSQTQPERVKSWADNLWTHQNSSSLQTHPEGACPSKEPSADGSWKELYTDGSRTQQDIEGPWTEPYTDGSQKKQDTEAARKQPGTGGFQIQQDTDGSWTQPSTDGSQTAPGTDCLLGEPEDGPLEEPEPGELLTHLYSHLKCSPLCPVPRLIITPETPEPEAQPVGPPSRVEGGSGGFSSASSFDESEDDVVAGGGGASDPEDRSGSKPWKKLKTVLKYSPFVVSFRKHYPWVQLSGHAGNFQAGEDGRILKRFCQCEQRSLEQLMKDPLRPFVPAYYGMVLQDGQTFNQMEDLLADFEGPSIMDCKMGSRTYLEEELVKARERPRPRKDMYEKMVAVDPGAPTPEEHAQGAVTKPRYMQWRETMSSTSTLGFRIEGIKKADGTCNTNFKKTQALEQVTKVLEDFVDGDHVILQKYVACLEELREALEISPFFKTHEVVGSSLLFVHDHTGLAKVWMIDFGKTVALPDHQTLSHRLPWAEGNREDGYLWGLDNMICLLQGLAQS
UniProt Q96C19: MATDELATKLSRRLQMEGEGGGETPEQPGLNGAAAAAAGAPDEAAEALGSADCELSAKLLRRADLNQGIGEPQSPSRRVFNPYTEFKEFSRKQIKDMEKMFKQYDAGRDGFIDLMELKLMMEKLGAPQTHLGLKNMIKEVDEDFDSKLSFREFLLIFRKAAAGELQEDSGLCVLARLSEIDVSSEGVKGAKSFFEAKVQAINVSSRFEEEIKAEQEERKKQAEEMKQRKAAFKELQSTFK
UniProt Q8WUF5: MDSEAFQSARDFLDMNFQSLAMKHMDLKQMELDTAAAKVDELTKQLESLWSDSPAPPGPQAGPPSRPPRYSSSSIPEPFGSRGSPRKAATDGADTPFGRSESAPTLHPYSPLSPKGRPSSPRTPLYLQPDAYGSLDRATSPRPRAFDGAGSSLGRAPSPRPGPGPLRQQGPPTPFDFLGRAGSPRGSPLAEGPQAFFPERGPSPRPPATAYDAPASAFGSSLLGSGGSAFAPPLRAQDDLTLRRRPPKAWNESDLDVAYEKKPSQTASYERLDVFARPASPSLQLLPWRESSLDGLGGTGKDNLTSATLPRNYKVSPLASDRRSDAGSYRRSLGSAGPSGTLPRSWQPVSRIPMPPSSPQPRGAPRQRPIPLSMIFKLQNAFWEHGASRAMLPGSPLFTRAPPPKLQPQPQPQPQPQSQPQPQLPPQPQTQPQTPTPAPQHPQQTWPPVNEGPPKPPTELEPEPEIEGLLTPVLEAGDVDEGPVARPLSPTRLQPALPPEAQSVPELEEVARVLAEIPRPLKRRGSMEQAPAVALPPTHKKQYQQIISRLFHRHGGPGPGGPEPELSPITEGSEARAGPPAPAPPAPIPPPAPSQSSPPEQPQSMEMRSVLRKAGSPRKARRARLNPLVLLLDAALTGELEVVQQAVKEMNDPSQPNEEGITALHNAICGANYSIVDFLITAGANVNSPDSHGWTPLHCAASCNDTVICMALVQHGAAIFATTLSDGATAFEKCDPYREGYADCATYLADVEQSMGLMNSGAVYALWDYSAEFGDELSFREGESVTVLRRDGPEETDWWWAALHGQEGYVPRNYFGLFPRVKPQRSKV
UniProt Q96IY1: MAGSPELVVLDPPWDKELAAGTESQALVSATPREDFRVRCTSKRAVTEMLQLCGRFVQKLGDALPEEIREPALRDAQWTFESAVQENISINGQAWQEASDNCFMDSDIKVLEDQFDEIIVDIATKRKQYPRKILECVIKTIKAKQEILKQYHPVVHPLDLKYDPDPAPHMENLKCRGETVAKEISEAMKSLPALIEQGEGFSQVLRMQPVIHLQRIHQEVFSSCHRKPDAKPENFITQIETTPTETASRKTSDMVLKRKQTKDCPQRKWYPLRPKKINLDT
UniProt Q8WUH2: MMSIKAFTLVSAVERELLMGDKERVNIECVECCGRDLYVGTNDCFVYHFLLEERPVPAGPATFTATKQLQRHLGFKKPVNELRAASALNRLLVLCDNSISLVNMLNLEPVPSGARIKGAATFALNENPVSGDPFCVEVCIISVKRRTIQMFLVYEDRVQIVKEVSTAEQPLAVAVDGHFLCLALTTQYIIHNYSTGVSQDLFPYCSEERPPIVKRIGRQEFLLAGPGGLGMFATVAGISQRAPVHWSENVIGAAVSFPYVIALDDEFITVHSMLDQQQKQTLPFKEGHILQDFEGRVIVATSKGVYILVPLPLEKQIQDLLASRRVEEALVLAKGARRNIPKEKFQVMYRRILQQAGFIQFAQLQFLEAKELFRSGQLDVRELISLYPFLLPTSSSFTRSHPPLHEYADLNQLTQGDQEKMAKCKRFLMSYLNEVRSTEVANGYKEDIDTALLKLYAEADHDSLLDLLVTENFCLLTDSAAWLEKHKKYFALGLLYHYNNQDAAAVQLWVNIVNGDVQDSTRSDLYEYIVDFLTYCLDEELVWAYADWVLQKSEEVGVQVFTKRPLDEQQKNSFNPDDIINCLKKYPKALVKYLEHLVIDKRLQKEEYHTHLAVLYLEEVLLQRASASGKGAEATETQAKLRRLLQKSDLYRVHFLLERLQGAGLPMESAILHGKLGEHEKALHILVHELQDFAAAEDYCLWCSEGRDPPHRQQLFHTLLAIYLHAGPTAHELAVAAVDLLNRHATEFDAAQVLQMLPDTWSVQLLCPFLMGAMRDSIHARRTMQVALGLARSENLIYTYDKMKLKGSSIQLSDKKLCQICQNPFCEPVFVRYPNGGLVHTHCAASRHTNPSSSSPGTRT
UniProt Q92834: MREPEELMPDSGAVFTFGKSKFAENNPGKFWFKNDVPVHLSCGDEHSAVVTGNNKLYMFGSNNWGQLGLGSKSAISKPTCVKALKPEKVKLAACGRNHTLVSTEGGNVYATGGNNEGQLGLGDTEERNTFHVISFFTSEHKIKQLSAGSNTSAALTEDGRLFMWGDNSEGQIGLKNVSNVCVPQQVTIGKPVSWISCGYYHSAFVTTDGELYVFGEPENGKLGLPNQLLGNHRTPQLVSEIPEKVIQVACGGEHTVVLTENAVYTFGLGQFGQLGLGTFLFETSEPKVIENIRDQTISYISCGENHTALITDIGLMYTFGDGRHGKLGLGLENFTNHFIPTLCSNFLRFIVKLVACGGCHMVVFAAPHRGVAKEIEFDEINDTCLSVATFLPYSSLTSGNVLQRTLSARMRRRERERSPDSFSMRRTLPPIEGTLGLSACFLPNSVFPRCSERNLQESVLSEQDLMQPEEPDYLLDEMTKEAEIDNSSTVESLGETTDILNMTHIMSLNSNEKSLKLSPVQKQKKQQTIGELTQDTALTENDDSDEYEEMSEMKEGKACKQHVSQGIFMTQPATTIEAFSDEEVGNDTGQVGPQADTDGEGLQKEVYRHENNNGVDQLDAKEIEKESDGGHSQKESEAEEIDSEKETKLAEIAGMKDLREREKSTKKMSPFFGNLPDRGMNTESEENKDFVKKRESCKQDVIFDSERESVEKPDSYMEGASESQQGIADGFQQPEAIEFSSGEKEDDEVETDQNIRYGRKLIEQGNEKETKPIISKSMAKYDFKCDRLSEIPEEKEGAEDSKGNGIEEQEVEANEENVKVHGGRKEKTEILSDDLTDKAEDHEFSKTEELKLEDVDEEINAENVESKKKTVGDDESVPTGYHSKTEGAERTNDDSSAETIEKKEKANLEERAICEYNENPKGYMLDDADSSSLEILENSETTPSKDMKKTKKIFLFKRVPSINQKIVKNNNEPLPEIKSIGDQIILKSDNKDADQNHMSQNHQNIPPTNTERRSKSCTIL
UniProt Q96G23: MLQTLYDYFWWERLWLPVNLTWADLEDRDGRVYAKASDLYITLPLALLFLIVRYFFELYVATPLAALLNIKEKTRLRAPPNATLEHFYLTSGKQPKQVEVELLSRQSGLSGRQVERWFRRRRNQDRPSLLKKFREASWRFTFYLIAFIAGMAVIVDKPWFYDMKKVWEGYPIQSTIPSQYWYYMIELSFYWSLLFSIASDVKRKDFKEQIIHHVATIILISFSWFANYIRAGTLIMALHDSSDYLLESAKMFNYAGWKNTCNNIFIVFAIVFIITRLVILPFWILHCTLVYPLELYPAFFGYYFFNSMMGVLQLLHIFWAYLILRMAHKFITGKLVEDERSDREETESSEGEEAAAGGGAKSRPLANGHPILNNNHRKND
UniProt Q8WVM8, whole entry, looked up: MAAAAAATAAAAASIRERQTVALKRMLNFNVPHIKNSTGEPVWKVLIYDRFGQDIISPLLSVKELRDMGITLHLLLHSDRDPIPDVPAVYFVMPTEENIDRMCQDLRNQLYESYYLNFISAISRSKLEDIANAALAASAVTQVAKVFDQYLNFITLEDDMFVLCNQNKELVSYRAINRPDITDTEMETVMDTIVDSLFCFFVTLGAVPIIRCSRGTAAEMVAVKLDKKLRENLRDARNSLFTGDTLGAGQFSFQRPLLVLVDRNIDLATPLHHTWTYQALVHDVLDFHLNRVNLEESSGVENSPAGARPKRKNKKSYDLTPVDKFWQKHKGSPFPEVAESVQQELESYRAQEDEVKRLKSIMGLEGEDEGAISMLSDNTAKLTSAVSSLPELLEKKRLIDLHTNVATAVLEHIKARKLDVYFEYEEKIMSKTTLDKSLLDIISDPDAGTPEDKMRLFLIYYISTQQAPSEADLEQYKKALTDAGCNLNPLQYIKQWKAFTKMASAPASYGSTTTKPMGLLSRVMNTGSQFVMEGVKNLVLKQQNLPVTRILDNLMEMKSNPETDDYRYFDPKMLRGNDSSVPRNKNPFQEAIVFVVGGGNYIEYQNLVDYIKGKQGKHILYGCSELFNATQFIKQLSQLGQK

These targets were tested with Nc1nc2c(ncn2[C@@H]2O[C@H](COP(=O)(O)OP(=O)(O)OP(=O)(O)O)[C@@H](O)[C@H]2O)c(=O)[nH]1 [guanosine triphosphate] (assay: NP40-soluble protein abundance relative to vehicle (solubility fold change) (ratio); higher = more soluble protein in presence of GTP). Details: concentration: 6mM.
Summary of the method: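 Data come from three independent experiments in which Dounce-homogenised Jurkat crude lysate was treated at eight concentrations from 0.1 to 10 mM. Treatment ran 10 min at room temperature and then 3 min at 37 °C, after which 0.8% NP40 and benzonase were added for 60 min at 4 °C before ultracentrifugation. The supernatant underwent TMT labelling and LC-MS/MS, and vsn-normalised intensities were expressed as fold change against the detergent-processed vehicle in each replicate.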

| Target | NP40-soluble protein abundance |
| --- | --- |
| DHX38 (UniProt Q92620) | 1.17 ± 0.061 |
| UniProt Q96BD5 and related entries | 1.14 ± 0.065 |
| UniProt Q96EA4 and related entries | 0.98 ± 0.1 |
| KTI12 (UniProt Q96EK9) | 0.992 ± 0.06 |
| UniProt Q93074 and related entries | 1.33 ± 0.21 |
| UniProt Q96AG3 and related entries | 1.03 ± 0.076 |
| RFK (UniProt Q969G6) | 0.912 ± 0.071 |
| UniProt Q96EY5 and related entries | 0.948 ± 0.036 |
| UniProt Q8WWV3 and related entries | 0.895 ± 0.028 |
| UniProt Q8WUY1 | 1.01 ± 0.034 |
| TRUB1 (UniProt Q8WWH5) | 0.925 ± 0.076 |
| TSEN15 (UniProt Q8WW01) | 0.905 ± 0.067 |
| NUP205 (UniProt Q92621) | 1.02 ± 0.098 |
| UniProt Q96FJ0 and related entries | 0.999 ± 0.068 |
| TOPBP1 (UniProt Q92547) | 1 ± 0.036 |
| DNAJC9 (UniProt Q8WXX5) | 1.4 ± 0.091 |
| UniProt Q92608 and related entries | 1.16 ± 0.1 |
| ITPKC (UniProt Q96DU7) | 1.02 ± 0.12 |
| H1FX (UniProt Q92522) | 1.16 ± 0.12 |

| Target | NP40-soluble protein abundance |
| --- | --- |
| CHMP7 (UniProt Q8WUX9) | 0.9 ± 0.045 |
| UniProt Q92609 and related entries | 0.944 ± 0.045 |
| EFHD2 (UniProt Q96C19) | 0.904 ± 0.14 |
| PPP1R13L (UniProt Q8WUF5) | 1.17 ± 0.14 |
| UniProt Q96EZ8 and related entries | 1.36 ± 0.13 |
| UniProt Q96CW5 and related entries | 1.49 ± 0.45 |
| UniProt Q969T7 and related entries | 0.869 ± 0.025 |
| NSL1 (UniProt Q96IY1) | 0.994 ± 0.039 |
| UniProt Q92610 and related entries | 1.33 ± 0.015 |
| TGFBRAP1 (UniProt Q8WUH2) | 1.07 ± 0.12 |
| UniProt Q92615 | 1.19 ± 0.066 |
| EXOC4 (UniProt Q96A65) | 0.988 ± 0.078 |
| UniProt Q96DF8 | 1.04 ± 0.022 |
| UniProt Q96BX8 | 0.886 ± 0.052 |
| RPGR (UniProt Q92834) | 1.03 ± 0.085 |
| UniProt Q96G23 | 0.941 ± 0.12 |
| UniProt Q8WX93 and related entries | 0.933 ± 0.02 |
| SCFD1 (UniProt Q8WVM8) | 0.958 ± 0.047 |

Same assay, conditions: concentration: 8mM

| Target | NP40-soluble protein abundance |
| --- | --- |
| DHX38 (UniProt Q92620) | 1.23 ± 0.076 |
| UniProt Q96BD5 and related entries | 1.15 ± 0.086 |
| UniProt Q96EA4 and related entries | 0.986 ± 0.065 |
| KTI12 (UniProt Q96EK9) | 0.947 ± 0.085 |
| UniProt Q93074 and related entries | 1.35 ± 0.23 |
| UniProt Q96AG3 and related entries | 1.08 ± 0.018 |
| RFK (UniProt Q969G6) | 0.873 ± 0.068 |
| UniProt Q96EY5 and related entries | 0.967 ± 0.036 |
| UniProt Q8WWV3 and related entries | 0.922 ± 0.03 |
| UniProt Q8WUY1 | 0.977 ± 0.058 |
| TRUB1 (UniProt Q8WWH5) | 0.91 ± 0.065 |
| TSEN15 (UniProt Q8WW01) | 0.93 ± 0.086 |
| NUP205 (UniProt Q92621) | 1.03 ± 0.04 |
| UniProt Q96FJ0 and related entries | 1.05 ± 0.12 |
| TOPBP1 (UniProt Q92547) | 0.998 ± 0.055 |
| DNAJC9 (UniProt Q8WXX5) | 1.43 ± 0.13 |
| UniProt Q92608 and related entries | 1.11 ± 0.056 |
| ITPKC (UniProt Q96DU7) | 1.02 ± 0.025 |
| H1FX (UniProt Q92522) | 1.12 ± 0.14 |

| Target | NP40-soluble protein abundance |
| --- | --- |
| CHMP7 (UniProt Q8WUX9) | 0.912 ± 0.1 |
| UniProt Q92609 and related entries | 0.97 ± 0.05 |
| EFHD2 (UniProt Q96C19) | 0.909 ± 0.14 |
| PPP1R13L (UniProt Q8WUF5) | 1.2 ± 0.17 |
| UniProt Q96EZ8 and related entries | 1.39 ± 0.2 |
| UniProt Q96CW5 and related entries | 1.42 ± 0.42 |
| UniProt Q969T7 and related entries | 0.878 ± 0.023 |
| NSL1 (UniProt Q96IY1) | 0.995 ± 0.064 |
| UniProt Q92610 and related entries | 1.34 ± 0.21 |
| TGFBRAP1 (UniProt Q8WUH2) | 1.03 ± 0.19 |
| UniProt Q92615 | 1.29 ± 0.057 |
| EXOC4 (UniProt Q96A65) | 1.03 ± 0.017 |
| UniProt Q96DF8 | 1.07 ± 0.13 |
| UniProt Q96BX8 | 0.864 ± 0.1 |
| RPGR (UniProt Q92834) | 1.03 ± 0.048 |
| UniProt Q96G23 | 0.968 ± 0.12 |
| UniProt Q8WX93 and related entries | 0.971 ± 0.051 |
| SCFD1 (UniProt Q8WVM8) | 0.933 ± 0.01 |
